PubChem BioAssay AID1159578 | Peter MacCallum Cancer Centre – 2015
The deposit covers about 18,000 reagents; below is a part drawn at random. Over the whole deposit, about 1,030 (5.7%) are marked active. 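Inactive calls also include pools with fewer than 3300 nuclei, whose migration was not assessed.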 Raw values are not corrected between plates. Unmarked entries are inactive. Not all columns of the deposit are shown.

Purpose: 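Genome-wide hunt for genes controlling movement of lymphatic endothelial cells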 (primary screen)
Cells: human lymphatic endothelial cells
Reagents: siRNA pool against human genes, 40 nM
Timing: 48 h after transfection
Measurement: 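High-content imaging of dye-stained cells in a scratch assay measures filled wound area and nuclei per well; duplicate means given as ratio to mock and robust z-score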
Direction: migration robust z-score: higher = faster migration into the scratch; nuclei per well: higher = more cells in the well
Rule for the call: 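Pools averaging fewer than 3300 nuclei are never called; remaining pools count as changed when migration robust z lies outside -2 to 2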
Meaning of the calls: active = migration changed; inactive = no migration change, or too few cells

Silencing of NTPCR gave: migration robust z-score 0.42; nuclei per well, duplicate mean 5496.
With knock-down of CP, the screen gave migration robust z-score 0.8; nuclei per well, duplicate mean 4822.
ERO1A showed migration robust z-score 0.47; nuclei per well, duplicate mean 4635.
After knock-down of NAPRT the results were migration robust z-score 2.1 (active); nuclei per well, duplicate mean 6957.
Against CDKL2, the values are migration robust z-score 1.04; nuclei per well, duplicate mean 6727.
For XKR8 the deposit lists migration robust z-score -0.58; nuclei per well, duplicate mean 6271.
SAMD5 showed migration robust z-score -1.02; nuclei per well, duplicate mean 6270.
For PLAC8, the values are migration robust z-score -0.39; nuclei per well, duplicate mean 5018.
Against PCNX2 the deposit lists migration robust z-score -0.5; nuclei per well, duplicate mean 5204.
PTPN6 scored migration robust z-score -1.66; nuclei per well, duplicate mean 6032.
TRIM71 gave migration robust z-score 0.75; nuclei per well, duplicate mean 5549.
Depletion of ACTR1B gave: migration robust z-score 0.84; nuclei per well, duplicate mean 5125.
After knock-down of ARHGEF35, the screen gave migration robust z-score -1.13; nuclei per well, duplicate mean 5676.
For AKR1C1, the values are migration robust z-score -0.39; nuclei per well, duplicate mean 6312.
CLEC18A gave migration robust z-score 0.41; nuclei per well, duplicate mean 6387.
Depletion of EDDM3B resulted in: migration robust z-score -0.35; nuclei per well, duplicate mean 4974.
With knock-down of SAMD11 the results were migration robust z-score -1.7; nuclei per well, duplicate mean 6362.
DMAC2 gave migration robust z-score 0.31; nuclei per well, duplicate mean 5044.
Silencing of PANX3 gave: migration robust z-score 0.04; nuclei per well, duplicate mean 5567.
Depletion of SPG21 resulted in: migration robust z-score -0.28; nuclei per well, duplicate mean 5634.
With knock-down of SLC5A11, the screen gave migration robust z-score -1.17; nuclei per well, duplicate mean 4020.

Entries above whose target name starts with S or s (4):
SAMD5: migration robust z-score = -1.02; nuclei per well, duplicate mean = 6270
SAMD11: migration robust z-score = -1.7; nuclei per well, duplicate mean = 6362
SPG21: migration robust z-score = -0.28; nuclei per well, duplicate mean = 5634
SLC5A11: migration robust z-score = -1.17; nuclei per well, duplicate mean = 4020
